Reference: the supplement of paper PMC10849652
This is one part of the list.

Sequences of proteins named here, by UniProt entry; tags and fusion partners are left off. A change or cut given only in a name is not applied to a line headed by its entry.
UniProt Q9Y6M5: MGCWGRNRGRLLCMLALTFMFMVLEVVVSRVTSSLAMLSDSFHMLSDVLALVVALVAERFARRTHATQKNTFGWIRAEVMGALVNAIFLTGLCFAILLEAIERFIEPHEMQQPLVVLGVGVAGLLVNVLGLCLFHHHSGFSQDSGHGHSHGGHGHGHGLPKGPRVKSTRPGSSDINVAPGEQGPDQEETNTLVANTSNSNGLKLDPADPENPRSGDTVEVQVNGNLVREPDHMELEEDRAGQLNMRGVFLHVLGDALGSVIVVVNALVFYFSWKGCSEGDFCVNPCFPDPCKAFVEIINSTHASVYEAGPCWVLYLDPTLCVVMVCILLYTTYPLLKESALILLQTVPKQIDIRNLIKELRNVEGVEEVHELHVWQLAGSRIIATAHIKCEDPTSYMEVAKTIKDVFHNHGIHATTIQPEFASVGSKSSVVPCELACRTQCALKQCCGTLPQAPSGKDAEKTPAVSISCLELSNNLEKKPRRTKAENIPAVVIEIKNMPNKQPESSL
UniProt Q8IWA5: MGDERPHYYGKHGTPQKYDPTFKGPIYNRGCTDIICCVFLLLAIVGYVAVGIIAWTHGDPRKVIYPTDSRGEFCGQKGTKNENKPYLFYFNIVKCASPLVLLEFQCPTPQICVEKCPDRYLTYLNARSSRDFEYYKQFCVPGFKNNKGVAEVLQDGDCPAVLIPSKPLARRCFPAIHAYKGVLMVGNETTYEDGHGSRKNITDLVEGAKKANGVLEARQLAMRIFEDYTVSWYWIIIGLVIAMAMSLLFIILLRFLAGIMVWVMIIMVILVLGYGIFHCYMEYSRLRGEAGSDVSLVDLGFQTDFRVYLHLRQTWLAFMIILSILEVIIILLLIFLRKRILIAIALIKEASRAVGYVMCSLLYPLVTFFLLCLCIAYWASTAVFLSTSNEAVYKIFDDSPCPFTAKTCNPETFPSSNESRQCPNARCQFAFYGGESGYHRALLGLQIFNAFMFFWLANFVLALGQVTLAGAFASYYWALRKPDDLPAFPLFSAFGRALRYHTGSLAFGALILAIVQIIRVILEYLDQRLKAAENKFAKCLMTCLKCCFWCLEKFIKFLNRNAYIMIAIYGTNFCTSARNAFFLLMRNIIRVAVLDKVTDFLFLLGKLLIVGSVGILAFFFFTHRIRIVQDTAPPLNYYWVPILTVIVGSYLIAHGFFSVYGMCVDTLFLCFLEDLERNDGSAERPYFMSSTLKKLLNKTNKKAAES
UniProt P02730: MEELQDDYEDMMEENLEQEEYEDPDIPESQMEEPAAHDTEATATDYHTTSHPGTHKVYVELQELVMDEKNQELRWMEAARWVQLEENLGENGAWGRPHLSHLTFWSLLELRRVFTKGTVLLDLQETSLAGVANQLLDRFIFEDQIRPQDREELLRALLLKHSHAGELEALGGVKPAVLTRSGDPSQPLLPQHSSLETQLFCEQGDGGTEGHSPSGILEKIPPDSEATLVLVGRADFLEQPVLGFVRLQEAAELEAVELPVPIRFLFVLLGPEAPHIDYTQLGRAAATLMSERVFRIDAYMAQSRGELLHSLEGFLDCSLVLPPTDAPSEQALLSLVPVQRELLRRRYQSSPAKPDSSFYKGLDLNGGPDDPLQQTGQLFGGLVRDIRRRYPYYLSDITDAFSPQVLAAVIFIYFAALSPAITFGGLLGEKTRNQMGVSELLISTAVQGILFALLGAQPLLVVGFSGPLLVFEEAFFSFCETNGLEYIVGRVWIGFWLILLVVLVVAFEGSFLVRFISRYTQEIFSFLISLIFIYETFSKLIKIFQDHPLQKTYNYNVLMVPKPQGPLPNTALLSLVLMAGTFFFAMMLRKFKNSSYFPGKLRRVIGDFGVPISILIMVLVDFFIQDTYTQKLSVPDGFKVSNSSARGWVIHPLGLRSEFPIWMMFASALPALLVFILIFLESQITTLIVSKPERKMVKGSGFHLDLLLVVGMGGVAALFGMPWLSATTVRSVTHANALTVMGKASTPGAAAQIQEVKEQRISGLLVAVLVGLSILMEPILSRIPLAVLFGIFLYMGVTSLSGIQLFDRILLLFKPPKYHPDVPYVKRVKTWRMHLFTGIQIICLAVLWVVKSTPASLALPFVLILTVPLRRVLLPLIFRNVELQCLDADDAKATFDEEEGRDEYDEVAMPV
UniProt Q9BQT8: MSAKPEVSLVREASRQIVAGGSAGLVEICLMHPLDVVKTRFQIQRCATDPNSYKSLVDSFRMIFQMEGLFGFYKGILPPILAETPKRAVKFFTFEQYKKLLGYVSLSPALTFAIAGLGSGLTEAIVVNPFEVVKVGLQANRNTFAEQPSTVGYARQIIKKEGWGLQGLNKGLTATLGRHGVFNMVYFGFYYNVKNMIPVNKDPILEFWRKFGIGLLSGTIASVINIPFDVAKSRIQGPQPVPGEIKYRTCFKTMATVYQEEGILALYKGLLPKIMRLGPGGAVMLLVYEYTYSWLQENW
UniProt Q6NUK1: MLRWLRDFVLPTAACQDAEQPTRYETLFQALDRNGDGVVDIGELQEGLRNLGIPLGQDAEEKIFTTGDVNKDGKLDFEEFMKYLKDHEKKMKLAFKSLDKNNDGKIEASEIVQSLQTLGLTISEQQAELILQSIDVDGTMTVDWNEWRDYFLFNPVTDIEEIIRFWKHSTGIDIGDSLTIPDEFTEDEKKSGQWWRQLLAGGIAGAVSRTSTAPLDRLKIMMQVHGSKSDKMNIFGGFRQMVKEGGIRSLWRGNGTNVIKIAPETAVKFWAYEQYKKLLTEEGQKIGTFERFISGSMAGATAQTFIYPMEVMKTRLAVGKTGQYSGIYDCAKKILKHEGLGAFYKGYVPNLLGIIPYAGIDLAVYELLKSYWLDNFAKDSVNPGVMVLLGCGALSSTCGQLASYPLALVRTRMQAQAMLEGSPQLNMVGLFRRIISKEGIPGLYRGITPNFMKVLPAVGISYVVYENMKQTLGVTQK
UniProt O14745: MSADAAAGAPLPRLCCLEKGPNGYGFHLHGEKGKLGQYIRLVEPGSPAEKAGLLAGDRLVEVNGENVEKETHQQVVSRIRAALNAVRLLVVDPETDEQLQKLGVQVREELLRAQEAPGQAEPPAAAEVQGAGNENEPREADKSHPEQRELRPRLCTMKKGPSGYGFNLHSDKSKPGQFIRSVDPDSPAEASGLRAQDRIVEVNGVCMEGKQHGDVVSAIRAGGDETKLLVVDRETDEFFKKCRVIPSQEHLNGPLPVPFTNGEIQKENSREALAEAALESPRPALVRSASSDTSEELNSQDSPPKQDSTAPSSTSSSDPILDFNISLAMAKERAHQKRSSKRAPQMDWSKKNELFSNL
UniProt Q6PML9: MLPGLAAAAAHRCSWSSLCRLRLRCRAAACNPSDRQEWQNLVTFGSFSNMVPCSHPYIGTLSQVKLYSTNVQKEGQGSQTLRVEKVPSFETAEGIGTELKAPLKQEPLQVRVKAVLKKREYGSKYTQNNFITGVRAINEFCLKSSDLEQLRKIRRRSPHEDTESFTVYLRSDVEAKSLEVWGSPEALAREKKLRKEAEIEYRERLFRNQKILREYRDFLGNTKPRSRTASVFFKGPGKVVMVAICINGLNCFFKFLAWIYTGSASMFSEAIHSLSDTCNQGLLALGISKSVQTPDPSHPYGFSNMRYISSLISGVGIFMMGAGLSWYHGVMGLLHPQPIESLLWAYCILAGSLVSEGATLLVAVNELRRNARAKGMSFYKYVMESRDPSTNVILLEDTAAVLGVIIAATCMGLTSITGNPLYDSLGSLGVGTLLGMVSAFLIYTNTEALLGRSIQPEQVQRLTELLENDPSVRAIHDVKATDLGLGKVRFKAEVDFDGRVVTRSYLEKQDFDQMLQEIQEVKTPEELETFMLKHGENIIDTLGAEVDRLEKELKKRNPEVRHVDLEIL
UniProt Q8NBI5: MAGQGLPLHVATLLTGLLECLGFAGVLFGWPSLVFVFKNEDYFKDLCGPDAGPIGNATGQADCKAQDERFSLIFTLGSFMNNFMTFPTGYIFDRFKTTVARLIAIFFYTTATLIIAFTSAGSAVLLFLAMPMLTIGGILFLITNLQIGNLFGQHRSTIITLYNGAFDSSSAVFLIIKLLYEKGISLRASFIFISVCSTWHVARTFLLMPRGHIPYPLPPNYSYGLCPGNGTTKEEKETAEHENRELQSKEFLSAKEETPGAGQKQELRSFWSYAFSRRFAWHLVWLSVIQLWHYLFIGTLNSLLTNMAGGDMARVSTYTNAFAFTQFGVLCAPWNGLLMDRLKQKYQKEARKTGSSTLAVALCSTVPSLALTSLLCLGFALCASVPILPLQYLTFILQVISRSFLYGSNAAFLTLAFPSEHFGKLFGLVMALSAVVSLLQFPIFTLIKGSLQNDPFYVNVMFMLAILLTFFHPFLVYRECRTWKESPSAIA
UniProt Q8TBP6: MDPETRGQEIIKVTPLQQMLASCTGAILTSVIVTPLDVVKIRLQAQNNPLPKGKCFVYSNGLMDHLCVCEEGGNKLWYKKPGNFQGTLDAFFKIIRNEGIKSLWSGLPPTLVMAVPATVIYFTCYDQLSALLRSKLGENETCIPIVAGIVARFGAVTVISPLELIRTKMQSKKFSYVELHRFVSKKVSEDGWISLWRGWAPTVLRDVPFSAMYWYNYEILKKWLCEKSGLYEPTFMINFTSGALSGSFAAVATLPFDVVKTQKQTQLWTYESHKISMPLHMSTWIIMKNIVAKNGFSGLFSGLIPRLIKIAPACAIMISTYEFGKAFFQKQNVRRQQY
UniProt Q9Y619: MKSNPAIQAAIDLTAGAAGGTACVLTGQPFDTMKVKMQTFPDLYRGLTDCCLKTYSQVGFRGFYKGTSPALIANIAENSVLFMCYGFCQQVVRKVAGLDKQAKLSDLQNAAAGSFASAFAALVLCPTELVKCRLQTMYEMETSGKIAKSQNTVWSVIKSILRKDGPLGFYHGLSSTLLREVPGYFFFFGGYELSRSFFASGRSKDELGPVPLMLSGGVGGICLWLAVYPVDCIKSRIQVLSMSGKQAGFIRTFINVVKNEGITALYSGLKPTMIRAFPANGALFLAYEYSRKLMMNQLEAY
UniProt Q6P1K1: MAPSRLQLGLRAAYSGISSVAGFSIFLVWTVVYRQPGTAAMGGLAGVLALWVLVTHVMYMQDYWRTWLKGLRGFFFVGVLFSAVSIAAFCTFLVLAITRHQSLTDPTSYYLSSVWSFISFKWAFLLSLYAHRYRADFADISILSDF
UniProt Q92504: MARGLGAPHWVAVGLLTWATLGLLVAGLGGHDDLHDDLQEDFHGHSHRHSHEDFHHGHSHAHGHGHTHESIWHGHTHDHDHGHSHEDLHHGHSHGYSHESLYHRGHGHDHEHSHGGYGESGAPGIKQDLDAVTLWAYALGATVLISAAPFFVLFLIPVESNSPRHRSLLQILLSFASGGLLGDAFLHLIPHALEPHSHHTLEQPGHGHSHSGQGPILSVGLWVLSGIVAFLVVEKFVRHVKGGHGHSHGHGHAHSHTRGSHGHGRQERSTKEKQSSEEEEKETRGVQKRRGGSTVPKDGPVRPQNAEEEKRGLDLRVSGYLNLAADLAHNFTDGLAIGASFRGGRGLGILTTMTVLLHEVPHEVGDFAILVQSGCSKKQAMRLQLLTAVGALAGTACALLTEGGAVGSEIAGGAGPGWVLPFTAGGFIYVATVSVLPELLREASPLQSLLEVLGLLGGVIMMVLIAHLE
UniProt P08195: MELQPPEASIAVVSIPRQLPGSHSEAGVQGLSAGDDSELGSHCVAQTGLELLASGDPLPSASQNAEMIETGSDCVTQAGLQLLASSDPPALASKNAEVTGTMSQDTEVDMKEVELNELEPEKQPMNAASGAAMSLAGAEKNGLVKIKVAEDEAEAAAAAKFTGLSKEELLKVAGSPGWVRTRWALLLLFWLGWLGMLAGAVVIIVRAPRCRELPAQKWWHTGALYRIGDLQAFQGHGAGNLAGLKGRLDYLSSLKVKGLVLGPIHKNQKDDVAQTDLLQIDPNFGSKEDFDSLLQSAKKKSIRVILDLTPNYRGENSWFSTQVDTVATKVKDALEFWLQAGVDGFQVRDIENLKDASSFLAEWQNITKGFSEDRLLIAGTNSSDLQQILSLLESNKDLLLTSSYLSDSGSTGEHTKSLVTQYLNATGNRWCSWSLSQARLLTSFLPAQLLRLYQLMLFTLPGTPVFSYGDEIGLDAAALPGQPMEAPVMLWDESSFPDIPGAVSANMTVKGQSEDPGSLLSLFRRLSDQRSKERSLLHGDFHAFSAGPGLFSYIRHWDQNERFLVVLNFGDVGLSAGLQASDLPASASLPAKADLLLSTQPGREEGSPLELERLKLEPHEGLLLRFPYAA
UniProt Q969S0: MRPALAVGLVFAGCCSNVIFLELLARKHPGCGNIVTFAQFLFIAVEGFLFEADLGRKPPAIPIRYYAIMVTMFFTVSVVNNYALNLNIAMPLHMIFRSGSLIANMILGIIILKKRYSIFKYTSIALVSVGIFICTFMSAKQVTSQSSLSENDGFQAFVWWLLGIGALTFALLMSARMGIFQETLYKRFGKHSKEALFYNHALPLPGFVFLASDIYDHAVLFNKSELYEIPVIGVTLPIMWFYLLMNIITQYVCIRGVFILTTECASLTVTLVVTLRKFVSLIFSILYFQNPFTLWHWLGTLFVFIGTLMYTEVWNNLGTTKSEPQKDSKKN

Key:
Assay in all cases: log2 fold change, soluble protein after heating vs DMSO (PISA); higher = thermal stabilisation; K562 lysate, 10 uM; active = over 0.2 and 3.5 SD of the protein, either way, in both replicates (recomputed)
[1] = compound: Cc1cn(-c2cc(NC(=O)c3ccc(C)c(Nc4nccc(-c5cccnc5)n4)c3)cc(C(F)(F)F)c2)cn1 [nilotinib]
Summary of the method: (§1)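 To prepare the extract, K562 pellets were dounce-homogenised in PBS pH 7.4 with 1 mM MgCl2, giving crude material at 1 mg/mL protein. This was treated with 10 μM compound for 30 min, then heated in aliquots for 3 min over 48°C-58°C before pooling and addition of NP-40 to 0.5% at 4°C. Centrifugation at 21,000xg for 90 min left soluble protein in the supernatant, which TMTpro 16plex LC-MS/MS quantified with equalised channel sums. Results are log-two fold changes in thermal stability compared with solvent controls, from duplicates.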

[2] = compound: Cc1nc(Nc2n[nH]c3c2CN(C(=O)N[C@H](CN(C)C)c2ccccc2)C3(C)C)c2sccc2n1
Summary of the method: as §1

[3] = compound: Cc1nc(Nc2ncc(C(=O)Nc3c(C)cccc3Cl)s2)cc(N2CCN(CCO)CC2)n1 [dasatinib]
Summary of the method: as §1

[4] = compound: Cc1ncc(-c2ccnc(Nc3ccc(S(C)(=O)=O)cc3)n2)n1C(C)C
Summary of the method: as §1

[5] = compound: Cn1cc(-c2ccc3c(c2)CCN3C(=O)Cc2cccc(C(F)(F)F)c2)c2c(N)ncnc21
Summary of the method: as §1

[6] = compound: Cn1cc(CNCC2CCN(c3ncc(C(=O)NO)cn3)CC2)c2ccccc21 [quisinostat]
Summary of the method: as §1

[7] = compound: Cn1cncc1[C@@](N)(c1ccc(Cl)cc1)c1ccc2c(c1)c(-c1cccc(Cl)c1)cc(=O)n2C [tipifarnib]
Summary of the method: as §1

[8] = compound: NC(=O)Nc1cc(-c2cccc(F)c2)sc1C(=O)N[C@H]1CCCNC1
Summary of the method: as §1

[9] = compound: NC(=O)c1cnc(N[C@@H]2CCCC[C@@H]2N)nc1Nc1cccc(-n2nccn2)c1
Summary of the method: as §1

[10] = compound: NC1(c2ccc(-c3nc4ccn5c(=O)[nH]nc5c4cc3-c3ccccc3)cc2)CCC1
Summary of the method: as §1

[11] = compound: NCC(=O)Nc1ccc(-n2nc(C(F)(F)F)cc2-c2ccc3c(ccc4ccccc43)c2)cc1
Summary of the method: as §1

[12] = compound: O=C(CCCCCCC(=O)Nc1ccccc1)NO [vorinostat]
Summary of the method: as §1

[13] = compound: O=C(O)c1ccc2c(c1)nc(Nc1cccc(Cl)c1)c1ccncc12 [silmitasertib]
Summary of the method: as §1

[14] = compound: O=C1NC(=O)C(c2cnc3ccccn23)=C1c1cn2c3c(cc(F)cc13)CN(C(=O)N1CCCCC1)CC2
Summary of the method: as §1

[15] = compound: c1cn2cc(-c3ccc4cn[nH]c4c3)nc(Nc3ccc(N4CCOCC4)cc3)c2n1 [entospletinib]
Summary of the method: as §1

Measured: log2 fold change

SLC43A1 (UniProt O75387)
inactive: [1] -0.047 | [2] 0.043 | [3] -0.034 | [4] 0.06 | [5] 0.06 | [6] 0.053 | [7] 0.018 | [8] -0.027 | [9] -0.055 | [10] 0.036 | [11] 0.029 | [12] 0.124 | [13] -0.028 | [14] 0.04 | [15] -0.01

SLC30A1 (UniProt Q9Y6M5)
inactive: [1] 0.035 | [2] -0.073 | [3] 0.028 | [4] 0.023 | [5] 0.021 | [6] -0.009 | [7] -0.017 | [8] 0.025 | [9] -0.018 | [10] 0.013 | [11] 0.033 | [12] -0.056 | [13] 0.017 | [14] 0.052 | [15] -0.021

SLC35B2 (UniProt Q8TB61)
inactive: [1] 0.011 | [2] 0.038 | [3] 0.032 | [4] -0.037 | [5] -0.005 | [6] 0.052 | [7] -0.085 | [8] -0.011 | [9] 0.013 | [10] 0 | [11] 0.032 | [12] 0.063 | [13] -0.062 | [14] 0.001 | [15] -0.026

SLC44A2 (UniProt Q8IWA5)
inactive: [1] 0.092 | [2] 0.037 | [3] 0.158 | [4] -0.049 | [5] -0.066 | [6] 0.023 | [7] -0.038 | [8] -0.083 | [9] -0.014 | [10] 0.023 | [11] -0.071 | [12] 0.033 | [13] 0.038 | [14] -0.045 | [15] -0.005

SLC4A1 (UniProt P02730)
inactive: [1] 0.056 | [2] 0 | [3] -0.004 | [4] -0.026 | [5] 0.042 | [6] 0.026 | [7] -0.121 | [8] -0.078 | [9] 0.013 | [10] 0.021 | [11] 0.052 | [12] 0.284 | [13] 0.088 | [14] 0.105 | [15] -0.059

SLC4A2 (UniProt P04920)
inactive: [1] 0.025 | [2] 0.087 | [3] -0.082 | [4] -0.003 | [5] 0.029 | [6] 0.003 | [7] -0.052 | [8] -0.015 | [9] -0.02 | [10] 0.008 | [11] -0.109 | [12] -0.03 | [13] 0.024 | [14] -0.021 | [15] 0.003

SLC25A42 (UniProt Q86VD7)
inactive: [1] 0.03 | [2] 0.049 | [3] 0.03 | [4] 0.005 | [5] -0.041 | [6] -0.092 | [7] 0.011 | [8] 0.051 | [9] 0.026 | [10] -0.073 | [11] -0.059 | [12] 0.016 | [13] -0.034 | [14] -0.03 | [15] -0.023

SLC25A21 (UniProt Q9BQT8)
inactive: [1] 0.009 | [2] 0.037 | [3] 0.037 | [4] -0.011 | [5] 0.016 | [6] -0.03 | [7] 0.028 | [8] 0.001 | [9] -0.009 | [10] -0.013 | [11] -0.039 | [12] 0.084 | [13] -0.013 | [14] -0.033 | [15] 0.026

SLC25A24 (UniProt Q6NUK1)
inactive: [1] 0.002 | [2] -0.018 | [3] 0.017 | [4] -0.015 | [5] 0.008 | [6] 0.006 | [7] -0.007 | [8] -0.017 | [9] -0.001 | [10] 0.02 | [11] 0.003 | [12] 0.103 | [13] -0.014 | [14] -0.027 | [15] 0.027

SLC25A32 (UniProt Q9H2D1)
inactive: [1] 0.007 | [2] 0.033 | [3] 0.011 | [4] 0.043 | [5] -0.055 | [6] -0.015 | [7] 0.016 | [8] 0.023 | [9] -0.029 | [10] -0.026 | [11] 0.053 | [12] 0.23 | [13] -0.008 | [14] 0.046 | [15] 0.033

SLC9A3R1 (UniProt O14745)
inactive: [1] 0.021 | [2] -0.018 | [3] 0.029 | [4] -0.015 | [5] -0.023 | [6] -0.005 | [7] 0.02 | [8] -0.003 | [9] -0.022 | [10] -0.015 | [11] 0.024 | [12] 0.108 | [13] -0.026 | [14] -0.001 | [15] 0.008

SLC35A4 (UniProt L0R6Q1)
inactive: [1] 0.126 | [2] 0.063 | [3] 0.024 | [4] 0.132 | [5] -0.01 | [6] -0.061 | [7] -0.025 | [8] -0.016 | [9] -0.035 | [10] -0.077 | [11] -0.077 | [12] 0.113 | [13] -0.077 | [14] 0.064 | [15] -0.021

SLC30A9 (UniProt Q6PML9)
inactive: [1] -0.026 | [2] 0.013 | [3] -0.035 | [4] -0.049 | [5] 0.055 | [6] 0.041 | [7] 0.14 | [8] -0.044 | [9] -0.026 | [10] -0.008 | [11] -0.109 | [12] 0.071 | [13] -0.058 | [14] 0.004 | [15] -0.027

Quoted from the listing (two entries):
SLC35A4 (UniProt L0R6Q1)
inactive: [1] 0.126 | [2] 0.063 | [3] 0.024 | [4] 0.132 | [5] -0.01 | [6] -0.061 | [7] -0.025 | [8] -0.016 | [9] -0.035 | [10] -0.077 | [11] -0.077 | [12] 0.113 | [13] -0.077 | [14] 0.064 | [15] -0.021

SLC30A9 (UniProt Q6PML9)
inactive: [1] -0.026 | [2] 0.013 | [3] -0.035 | [4] -0.049 | [5] 0.055 | [6] 0.041 | [7] 0.14 | [8] -0.044 | [9] -0.026 | [10] -0.008 | [11] -0.109 | [12] 0.071 | [13] -0.058 | [14] 0.004 | [15] -0.027

Later entries.

SLC43A3 isoform 2 (UniProt Q8NBI5)
inactive: [1] 0.007 | [2] 0.033 | [3] 0.04 | [4] -0.041 | [5] -0.027 | [6] 0.013 | [7] -0.007 | [8] -0.002 | [9] -0.019 | [10] 0.046 | [11] -0.045 | [12] 0.02 | [13] 0.028 | [14] 0.022 | [15] -0.006

SLC25A40 (UniProt Q8TBP6)
inactive: [1] 0.013 | [2] 0.038 | [3] 0.025 | [4] -0.012 | [5] 0.008 | [6] -0.016 | [7] 0.008 | [8] -0.056 | [9] -0.035 | [10] 0.001 | [11] 0.005 | [12] -0.058 | [13] -0.024 | [14] -0.014 | [15] -0.036

SLC25A15 (UniProt Q9Y619)
inactive: [1] 0.029 | [2] 0.041 | [3] 0.008 | [4] -0.003 | [5] 0.005 | [6] -0.064 | [7] 0.012 | [8] 0.015 | [9] -0.031 | [10] -0.003 | [11] 0.007 | [12] 0.044 | [13] 0.018 | [14] -0.058 | [15] 0.009

SLC48A1 (UniProt Q6P1K1)
inactive: [1] -0.425 | [2] 0.132 | [3] 0.083 | [4] 0.186 | [5] 0.053 | [7] 0.313 | [9] -0.116 | [10] -0.102 | [11] -0.026 | [12] 0.102 | [13] -0.107 | [15] 0.043

SLMAP isoform 3 (UniProt Q14BN4)
inactive: [1] -0.025 | [2] -0.053 | [3] -0.023 | [4] -0.014 | [5] 0.056 | [6] -0.031 | [7] 0.036 | [8] 0.027 | [9] 0.02 | [10] -0.003 | [11] -0.001 | [12] -0.155 | [13] 0.036 | [14] -0.013 | [15] -0.016

SLC39A7 (UniProt Q92504)
inactive: [1] 0 | [2] 0.026 | [4] 0.031 | [6] -0.06 | [7] -0.057 | [8] -0.021 | [9] 0.009 | [10] -0.04 | [11] 0.05 | [12] -0.073 | [13] -0.018 | [14] 0.012 | [15] 0.001

SLC3A2 isoform 3 (UniProt P08195)
inactive: [1] 0.035 | [2] -0.015 | [3] 0.028 | [4] 0.021 | [5] -0.007 | [6] -0.004 | [7] 0.006 | [8] -0.006 | [9] -0.01 | [10] 0.014 | [11] 0.011 | [12] 0.143 | [13] -0.019 | [14] -0.004 | [15] 0.009

SLC35B4 (UniProt Q969S0)
inactive: [1] 0.015 | [2] 0.024 | [4] -0.004 | [6] -0.165 | [7] -0.094 | [8] -0.03 | [9] 0.007 | [10] -0.029 | [11] -0.008 | [12] 0.07 | [13] -0.07 | [14] -0.047 | [15] 0.033
